Test results reported in patent US20150079590A1, “CHARACTERIZATION AND ANALYSIS OF THE COMPOSITION AND DYNAMICS OF THE MAMMALIAN RIBOPROTEOME” (Beth Israel Deaconess Medical Center, Inc., priority 2013, published 2015).

Test system: LARP1 and RpL4 in PPC1 cells
Assay: Western blot of individual sucrose gradient fractions of PPC1 cell lysates treated with DMSO or PP242
Type: cell-based, human
Experimental: Polysome profiles were prepared from MEF and different prostate cancer cell lines as follows. MEF were seeded at 2×10^6 cells/15 cm and PPC1, PC3, Du145, RWPE1 and PWR1E cells seeded at 10×10^6 cells/15 cm dish and cultured overnight to ensure sub confluent cultures for polysome analysis. PPC1 cells were treated the following day with either DMSO, rapamycin (20 nM) or PP242 (500 nM) for three hours. For polysome preparation, cells were then incubated with cycloheximide at a final concentration of 100 μg/mL for a period of 15 mins. Plates were then washed with ice-cold PBS containing 100 μg/mL cycloheximide (PBS/CHX), scraped, and collected in ice-cold PBS/CHX. […] Lysates were centrifuged at 7,000 rpm for 5 min at 4° C., and the supernatant carefully removed. Protein concentrations for lysates were measured by Bradford assay, and equal amounts of protein loaded on a 15%-50% sucrose gradient containing 100 μg/mL cycloheximide, 0.2 mg/mL heparin and 1 mM DTT. Gradients were centrifuged at 36,000 rpm for 3 hrs at 4° C. in a Beckman SW40 rotor, and subsequently fractionated using an ISCO-Foxy Jr. fraction collector. Polysome profiles were reordered using a UA-6 absorbance detector connected to the fraction collector and measuring absorbance at 254 nm. […]

CC(C)n1nc(-c2cc3cc(O)ccc3[nH]2)c2c(N)ncnc21 [PP242]
shift of LARP1 and RpL4 across sucrose gradient fractions: can be readily observed
